Source: PubChem BioAssay AID1159578 (Peter MacCallum Cancer Centre, 2015)

Purpose: 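Genome-wide hunt for genes controlling movement of lymphatic endothelial cells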 (primary screen)
Cell system: human lymphatic endothelial cells
Knock-down reagent: siRNA pool against human genes, 40 nM
Timing: 48 h after transfection
Detection: 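High-content imaging of dye-stained cells in a scratch assay measures filled wound area and nuclei per well; duplicate means given as ratio to mock and robust z-score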
Reading the numbers: migration robust z-score: higher = faster migration into the scratch; nuclei per well: higher = more cells in the well
Hit rule: 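Pools averaging fewer than 3300 nuclei are never called; remaining pools count as changed when migration robust z lies outside -2 to 2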
Calls: active = migration changed; inactive = no migration change, or too few cells
This is an unselected part of about 18,000 reagents. Over the whole deposit, about 1,030 (5.7%) are marked active. 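Inactive calls also include pools with fewer than 3300 nuclei, whose migration was not assessed.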 Raw values are not corrected between plates. Unmarked entries are inactive. Not all columns of the deposit are shown. Reagent sequences are not shown.

With knock-down of ZNF468 the results were migration robust z-score 0.19; migration class with cell-count check migration z between -2 and 2; enough cells; nuclei per well, duplicate mean 5717. With knock-down of CABP4 the results were migration robust z-score 1.91; migration class with cell-count check migration z between -2 and 2; enough cells; nuclei per well, duplicate mean 5604. For IRF9, the values are migration robust z-score 0.65; migration class with cell-count check migration z between -2 and 2; enough cells; nuclei per well, duplicate mean 5876. Knock-down of NSUN6 gave: migration robust z-score 0.32; migration class with cell-count check migration z between -2 and 2; enough cells; nuclei per well, duplicate mean 5789. Knock-down of PODNL1 gave: migration robust z-score 0.95; migration class with cell-count check migration z between -2 and 2; enough cells; nuclei per well, duplicate mean 5246. ZC3H6 scored migration robust z-score -0.98; migration class with cell-count check migration z between -2 and 2; enough cells; nuclei per well, duplicate mean 6796.

DRP2 scored migration robust z-score 0.28; migration class with cell-count check migration z between -2 and 2; enough cells; nuclei per well, duplicate mean 6082. For OR8H1, the values are migration robust z-score -0.84; migration class with cell-count check migration z between -2 and 2; enough cells; nuclei per well, duplicate mean 5797. After knock-down of PCSK9, the screen gave migration robust z-score -0.21; migration class with cell-count check migration z between -2 and 2; enough cells; nuclei per well, duplicate mean 5990. Silencing of FARP1 came out at: migration robust z-score -2.35 (active); migration class with cell-count check migration z below -2; enough cells; nuclei per well, duplicate mean 5631. For LRRC7, the entry reads migration robust z-score 0.88; migration class with cell-count check migration z between -2 and 2; enough cells; nuclei per well, duplicate mean 5658. With knock-down of CCDC142 the results were migration robust z-score 0.28; migration class with cell-count check migration z between -2 and 2; enough cells; nuclei per well, duplicate mean 5539.

Silencing of BZW1 resulted in: migration robust z-score -0.78; migration class with cell-count check migration z between -2 and 2; enough cells; nuclei per well, duplicate mean 3372. Knock-down of ARHGAP5 came out at: migration robust z-score -0.8; migration class with cell-count check migration z between -2 and 2; enough cells; nuclei per well, duplicate mean 4643.
